The source of these data is the supplement of paper PMC8728848.

The list shows a part of the results.

Holding throughout (test): glycan array binding signal (z-score within array); higher = stronger binding
Conditions in all cases: glycan notation: IUPAC condensed, linker removed

Test [1] has as its target Gal(b1-4)GlcNAc(b1-2)[Gal(b1-4)GlcNAc(b1-6)]Man(a1-6)[Gal(b1-4)GlcNAc(b1-2)Man(a1-3)]Man(b1-4)GlcNAc(b1-4)[Fuc(a1-6)]GlcNAc. The method in brief:
(§1)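 The Consortium for Functional Glycomics database supplied 3228 glycan arrays, of which those lacking an available protein sequence were dropped. The binding signal, a within-array Z-score, was averaged across arrays of the same protein sequence and across linkers. Negative scores can be read as non-binding.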

Test [2] deals with Gal(b1-4)GlcNAc(b1-2)[Gal(b1-4)GlcNAc(b1-6)]Man(a1-6)[GlcNAc(b1-4)][Gal(b1-4)GlcNAc(b1-2)Man(a1-3)]Man(b1-4)GlcNAc(b1-4)GlcNAc. The method in brief: as §1
In test [3] the target is Gal(b1-4)GlcNAc(b1-2)[Gal(b1-4)GlcNAc(b1-6)]Man(a1-6)[GlcNAc(b1-4)][Gal(b1-4)GlcNAc(b1-2)[Gal(b1-4)GlcNAc(b1-4)]Man(a1-3)]Man(b1-4)GlcNAc(b1-4)[Fuc(a1-6)]GlcNAc. The method in brief: as §1
Test [4] addresses Gal(b1-4)GlcNAc(b1-3)Gal(b1-3)GalNAc. The method in brief: as §1
Test [5] has as its target Gal(b1-4)GlcNAc(b1-3)Gal(b1-3)GlcNAc. The method in brief: as §1
Test [6] has as its target Gal(b1-4)GlcNAc(b1-3)Gal(b1-4)Glc. The method in brief: as §1
The target in test [7] is Gal(b1-4)GlcNAc(b1-3)Gal(b1-4)GlcNAc. The method in brief: as §1
Test [8] concerns the target Gal(b1-4)GlcNAc(b1-3)Gal(b1-4)GlcNAc(b1-2)Man(a1-3)[Gal(b1-4)GlcNAc(b1-3)Gal(b1-4)GlcNAc(b1-2)Man(a1-6)]Man(b1-4)GlcNAc(b1-4)GlcNAc. The method in brief:
as §1

Test [9] has as its target Gal(b1-4)GlcNAc(b1-3)Gal(b1-4)GlcNAc(b1-2)Man(a1-3)[Gal(b1-4)GlcNAc(b1-3)Gal(b1-4)GlcNAc(b1-2)Man(a1-6)]Man(b1-4)GlcNAc(b1-4)[Fuc(a1-6)]GlcNAc. The method in brief:
as §1

The target in test [10] is Gal(b1-4)GlcNAc(b1-3)Gal(b1-4)GlcNAc(b1-2)[Gal(b1-4)GlcNAc(b1-3)Gal(b1-4)GlcNAc(b1-6)]Man(a1-6)[Gal(b1-4)GlcNAc(b1-3)Gal(b1-4)GlcNAc(b1-2)Man(a1-3)]Man(b1-4)GlcNAc(b1-4)GlcNAc. The method in brief: as §1
The target in test [11] is Gal(b1-4)GlcNAc(b1-3)Gal(b1-4)GlcNAc(b1-2)[Gal(b1-4)GlcNAc(b1-3)Gal(b1-4)GlcNAc(b1-6)]Man(a1-6)[Gal(b1-4)GlcNAc(b1-3)Gal(b1-4)GlcNAc(b1-2)Man(a1-3)]Man(b1-4)GlcNAc(b1-4)[Fuc(a1-6)]GlcNAc. The method in brief:
as §1

Test [12] has as its target Gal(b1-4)GlcNAc(b1-3)Gal(b1-4)GlcNAc(b1-3)Gal(b1-4)GlcNAc. The method in brief: as §1
Test [13] concerns the target Gal(b1-4)GlcNAc(b1-3)Gal(b1-4)GlcNAc(b1-3)Gal(b1-4)GlcNAc(b1-2)Man(a1-3)[Gal(b1-4)GlcNAc(b1-3)Gal(b1-4)GlcNAc(b1-3)Gal(b1-4)GlcNAc(b1-2)Man(a1-6)]Man(b1-4)GlcNAc(b1-4)GlcNAc. The method in brief:
as §1

The target of test [14] is Gal(b1-4)GlcNAc(b1-3)Gal(b1-4)GlcNAc(b1-3)Gal(b1-4)GlcNAc(b1-2)Man(a1-3)[Gal(b1-4)GlcNAc(b1-3)Gal(b1-4)GlcNAc(b1-3)Gal(b1-4)GlcNAc(b1-2)Man(a1-6)]Man(b1-4)GlcNAc(b1-4)[Fuc(a1-6)]GlcNAc. The method in brief:
as §1

Test [15] concerns the target Gal(b1-4)GlcNAc(b1-3)Gal(b1-4)GlcNAc(b1-3)Gal(b1-4)GlcNAc(b1-2)[Gal(b1-4)GlcNAc(b1-3)Gal(b1-4)GlcNAc(b1-3)Gal(b1-4)GlcNAc(b1-6)]Man(a1-6)[Gal(b1-4)GlcNAc(b1-3)Gal(b1-4)GlcNAc(b1-3)Gal(b1-4)GlcNAc(b1-2)Man(a1-3)]Man(b1-4)GlcNAc(b1-4)[Fuc(a1-6)]GlcNAc. The method in brief: as §1
Test [16] deals with Gal(b1-4)GlcNAc(b1-3)Gal(b1-4)GlcNAc(b1-3)Gal(b1-4)GlcNAc(b1-3)Gal(b1-4)GlcNAc(b1-2)Man(a1-3)[Gal(b1-4)GlcNAc(b1-3)Gal(b1-4)GlcNAc(b1-3)Gal(b1-4)GlcNAc(b1-3)Gal(b1-4)GlcNAc(b1-2)Man(a1-6)]Man(b1-4)GlcNAc(b1-4)GlcNAc. The method in brief:
as §1

For test [17], the target named is Gal(b1-4)GlcNAc(b1-3)Gal(b1-4)GlcNAc(b1-3)Gal(b1-4)GlcNAc(b1-3)Gal(b1-4)GlcNAc(b1-2)Man(a1-3)[Gal(b1-4)GlcNAc(b1-3)Gal(b1-4)GlcNAc(b1-3)Gal(b1-4)GlcNAc(b1-3)Gal(b1-4)GlcNAc(b1-2)Man(a1-6)]Man(b1-4)GlcNAc(b1-4)[Fuc(a1-6)]GlcNAc. The method in brief: as §1
Test [18] concerns the target Gal(b1-4)GlcNAc(b1-3)Gal(b1-4)GlcNAc(b1-3)Gal(b1-4)GlcNAc(b1-3)Gal(b1-4)GlcNAc(b1-2)[Gal(b1-4)GlcNAc(b1-3)Gal(b1-4)GlcNAc(b1-3)Gal(b1-4)GlcNAc(b1-3)Gal(b1-4)GlcNAc(b1-6)]Man(a1-6)[Gal(b1-4)GlcNAc(b1-3)Gal(b1-4)GlcNAc(b1-3)Gal(b1-4)GlcNAc(b1-3)Gal(b1-4)GlcNAc(b1-2)Man(a1-3)]Man(b1-4)GlcNAc(b1-4)[Fuc(a1-6)]GlcNAc. The method in brief:
as §1

Test [19] concerns the target Gal(b1-4)GlcNAc(b1-3)Gal(b1-4)GlcNAc(b1-3)Gal(b1-4)GlcNAc(b1-3)Gal(b1-4)GlcNAc(b1-3)Gal(b1-4)GlcNAc(b1-2)Man(a1-3)[Gal(b1-4)GlcNAc(b1-3)Gal(b1-4)GlcNAc(b1-3)Gal(b1-4)GlcNAc(b1-3)Gal(b1-4)GlcNAc(b1-3)Gal(b1-4)GlcNAc(b1-2)Man(a1-6)]Man(b1-4)GlcNAc(b1-4)GlcNAc. The method in brief: as §1
In test [20] the target is Gal(b1-4)GlcNAc(b1-3)Gal(b1-4)GlcNAc(b1-3)Gal(b1-4)GlcNAc(b1-3)Gal(b1-4)GlcNAc(b1-3)Gal(b1-4)GlcNAc(b1-2)Man(a1-3)[Gal(b1-4)GlcNAc(b1-3)Gal(b1-4)GlcNAc(b1-3)Gal(b1-4)GlcNAc(b1-3)Gal(b1-4)GlcNAc(b1-3)Gal(b1-4)GlcNAc(b1-2)Man(a1-6)]Man(b1-4)GlcNAc(b1-4)[Fuc(a1-6)]GlcNAc. The method in brief: as §1
Test [21] concerns the target Gal(b1-4)GlcNAc(b1-3)Gal(b1-4)GlcNAc(b1-3)Gal(b1-4)GlcNAc(b1-3)Gal(b1-4)GlcNAc(b1-3)Gal(b1-4)GlcNAc(b1-2)[Gal(b1-4)GlcNAc(b1-3)Gal(b1-4)GlcNAc(b1-3)Gal(b1-4)GlcNAc(b1-3)Gal(b1-4)GlcNAc(b1-3)Gal(b1-4)GlcNAc(b1-6)]Man(a1-6)[Gal(b1-4)GlcNAc(b1-3)Gal(b1-4)GlcNAc(b1-3)Gal(b1-4)GlcNAc(b1-3)Gal(b1-4)GlcNAc(b1-3)Gal(b1-4)GlcNAc(b1-2)Man(a1-3)]Man(b1-4)GlcNAc(b1-4)[Fuc(a1-6)]GlcNAc. The method in brief:
as §1

Test [22] deals with Gal(b1-4)GlcNAc(b1-3)Gal(b1-4)GlcNAc(b1-3)Gal(b1-4)GlcNAc(b1-3)Gal(b1-4)GlcNAc(b1-3)Gal(b1-4)GlcNAc(b1-3)Gal(b1-4)GlcNAc(b1-2)Man(a1-3)[Gal(b1-4)GlcNAc(b1-3)Gal(b1-4)GlcNAc(b1-3)Gal(b1-4)GlcNAc(b1-3)Gal(b1-4)GlcNAc(b1-3)Gal(b1-4)GlcNAc(b1-3)Gal(b1-4)GlcNAc(b1-2)Man(a1-6)]Man(b1-4)GlcNAc(b1-4)GlcNAc. The method in brief:
as §1

In test [23] the target is Gal(b1-4)GlcNAc(b1-3)Gal(b1-4)GlcNAc(b1-3)GalNAc. The method in brief:
as §1

B1: AFL6 (Aspergillus fumigatus), Q4WKJ1 (protein)
chain: MSFHLTAEDIRIEDGHRLVARLRNADGDLQDASIDLNTCLGNDNGHFQWDGVDFSHSAQDVHFAIEGGGQVPVLRAQLANQDGEFQDADVNLSERIENINGEFVFH
Regarding B1, the “glycan array binding signal (z-score)” value in test [1] was 0.724; in test [2], -0.584; in [3] it was -0.245; in test [4], -0.366; in [5], 0.015; in test [6] it was -0.352. Moreover, the “glycan array binding signal (z-score)” value is 0.218 in [7]; 2.27 in [8]; 0.371 in [9]; 2.23 in test [10]; 1.45 in test [11]; -0.453 in test [12]. In addition, the “glycan array binding signal (z-score)” value in test [13] turned out to be 2.41; in [14], 1.5; in [15] it was 1.58; in test [16] it was 1.12; in test [17] it was 2.99; in test [18], 1.23. Also, the “glycan array binding signal (z-score)” value is 1.16 in test [19]; 0.612 in test [20]; 1.35 in test [21]; 0.978 in test [22]; 0.845 in test [23].
